Measured values: patent US8501816B2, “Antitussive compositions comprising memantine” (Cerecor, Inc., priority 2010, dated 2013)

Test system: citric acid induced cough
Experiment: Citric acid induced cough in conscious guinea pigs
Conditions: for Mean ± sem cumulative coughs / ≧15 Cumulative coughs/total number of guinea pigs: potentially synergistic agents

CN(C)CCOC(c1ccccc1)c1ccccc1 [Diphenhydramine]
Mean ± sem cumulative coughs (10 mg/kg po): 25 ± 5
≧15 Cumulative coughs/total number of guinea pigs (10 mg/kg po): 3/3
Mean ± sem cumulative coughs (30 mg/kg po): 12 ± 2
≧15 Cumulative coughs/total number of guinea pigs (30 mg/kg po): 2/6
≧15 Cumulative coughs/total number of guinea pigs (100 mg/kg po): 0/5
Effect of single agent on citric acid (0.01-0.3M) induced cough (oral, 60 minutes prior, memantine 3, guaifenesin 100, diphenhydramine 10, benzonatate 30, ambroxol 100 mg/kg): failed to inhibit cough
